Assay results: patent publication US5760188A (Martin R&F Inc., priority 1996, dated 1998)

Assay: general procedure: Boc solid-phase peptide synthesis
Conditions: whole synthesis, analytical HPLC on u Bondapak C18 column, UV and fluorescence detection

Q: With “PEPTIDE1{[FTC].E.L.Y.E.N.K.P.R.R.P.Y.I.L}$$$$V2.0” as the substance, how does the “final HPLC purity” value read?
A: approximately 99%

Strings that start with PEPTIDE1 are HELM notation: dots part the residues, brackets hold end groups and non-standard residues.
